This is one part of the list.

Chains of the proteins cited; added tags and fusions are not shown. Lines headed by an entry give the natural chain unless they say otherwise; changes in a name come on top.
UniProt O60739, whole entry, looked up: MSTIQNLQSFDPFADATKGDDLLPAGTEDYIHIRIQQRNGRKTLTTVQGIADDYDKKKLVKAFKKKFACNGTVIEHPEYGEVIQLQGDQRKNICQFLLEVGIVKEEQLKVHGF
UniProt O60869: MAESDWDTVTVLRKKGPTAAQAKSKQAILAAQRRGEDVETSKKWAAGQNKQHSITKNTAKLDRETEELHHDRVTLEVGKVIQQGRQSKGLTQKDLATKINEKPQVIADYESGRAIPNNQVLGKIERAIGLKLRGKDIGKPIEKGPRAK
UniProt Q14919: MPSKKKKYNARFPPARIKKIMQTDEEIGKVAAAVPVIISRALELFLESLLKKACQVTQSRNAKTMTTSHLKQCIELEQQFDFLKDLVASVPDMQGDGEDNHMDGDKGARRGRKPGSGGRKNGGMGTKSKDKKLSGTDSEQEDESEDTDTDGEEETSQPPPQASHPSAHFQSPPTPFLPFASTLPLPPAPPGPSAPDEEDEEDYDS
UniProt O95620: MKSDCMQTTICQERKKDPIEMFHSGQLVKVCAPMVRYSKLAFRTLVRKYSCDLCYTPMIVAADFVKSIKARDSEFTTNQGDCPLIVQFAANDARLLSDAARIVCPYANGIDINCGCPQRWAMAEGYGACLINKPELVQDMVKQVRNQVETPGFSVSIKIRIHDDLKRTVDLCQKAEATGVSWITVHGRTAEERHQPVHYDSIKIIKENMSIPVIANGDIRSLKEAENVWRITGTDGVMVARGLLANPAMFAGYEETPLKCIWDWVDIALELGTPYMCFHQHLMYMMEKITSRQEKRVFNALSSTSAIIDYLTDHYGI
UniProt O43324: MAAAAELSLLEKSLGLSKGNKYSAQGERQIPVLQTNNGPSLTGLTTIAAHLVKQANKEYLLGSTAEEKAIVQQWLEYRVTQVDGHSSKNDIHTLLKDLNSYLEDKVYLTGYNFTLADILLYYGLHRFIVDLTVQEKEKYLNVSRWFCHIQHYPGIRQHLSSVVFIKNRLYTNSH
UniProt Q9BY44: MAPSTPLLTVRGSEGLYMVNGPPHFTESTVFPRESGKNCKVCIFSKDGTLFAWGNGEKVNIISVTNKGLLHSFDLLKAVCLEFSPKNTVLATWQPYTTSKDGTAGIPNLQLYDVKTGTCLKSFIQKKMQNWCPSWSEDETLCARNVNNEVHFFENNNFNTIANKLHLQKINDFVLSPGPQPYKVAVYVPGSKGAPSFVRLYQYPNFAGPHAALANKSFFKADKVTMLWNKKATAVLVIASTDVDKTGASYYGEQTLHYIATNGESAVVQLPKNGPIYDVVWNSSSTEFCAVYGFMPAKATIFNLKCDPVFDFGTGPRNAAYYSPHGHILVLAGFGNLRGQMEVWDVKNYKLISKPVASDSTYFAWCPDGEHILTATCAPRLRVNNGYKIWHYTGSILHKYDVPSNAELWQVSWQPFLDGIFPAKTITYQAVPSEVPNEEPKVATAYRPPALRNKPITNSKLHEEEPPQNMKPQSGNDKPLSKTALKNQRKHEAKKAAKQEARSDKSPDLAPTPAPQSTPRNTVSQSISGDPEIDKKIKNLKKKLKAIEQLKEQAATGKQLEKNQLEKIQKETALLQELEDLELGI
EEF1AKMT2, A0A494BZY7, UniProt A0A494BZY7, whole entry, looked up: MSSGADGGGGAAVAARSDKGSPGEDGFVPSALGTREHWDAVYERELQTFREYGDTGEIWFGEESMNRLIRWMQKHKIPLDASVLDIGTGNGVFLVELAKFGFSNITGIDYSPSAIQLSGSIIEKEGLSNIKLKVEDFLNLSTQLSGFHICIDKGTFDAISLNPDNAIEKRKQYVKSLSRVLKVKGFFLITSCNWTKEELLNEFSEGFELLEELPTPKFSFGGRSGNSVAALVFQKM
UniProt Q96G46: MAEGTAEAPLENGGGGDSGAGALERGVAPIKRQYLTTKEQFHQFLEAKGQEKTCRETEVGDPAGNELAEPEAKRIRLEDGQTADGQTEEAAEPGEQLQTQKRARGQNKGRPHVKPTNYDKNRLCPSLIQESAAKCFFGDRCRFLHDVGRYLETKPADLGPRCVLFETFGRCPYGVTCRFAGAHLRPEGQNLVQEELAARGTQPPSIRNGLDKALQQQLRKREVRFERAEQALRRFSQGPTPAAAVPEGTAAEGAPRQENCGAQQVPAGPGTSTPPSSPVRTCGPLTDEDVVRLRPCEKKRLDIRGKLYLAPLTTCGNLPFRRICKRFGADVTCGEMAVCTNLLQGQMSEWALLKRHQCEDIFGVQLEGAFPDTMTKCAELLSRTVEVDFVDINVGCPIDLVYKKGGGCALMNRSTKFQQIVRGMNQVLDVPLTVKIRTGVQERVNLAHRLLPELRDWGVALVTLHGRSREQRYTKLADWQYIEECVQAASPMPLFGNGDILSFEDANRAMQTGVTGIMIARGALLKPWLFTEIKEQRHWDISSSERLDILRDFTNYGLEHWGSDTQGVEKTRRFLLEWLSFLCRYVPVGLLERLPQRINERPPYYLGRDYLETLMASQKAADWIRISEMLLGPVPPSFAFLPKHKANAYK
UniProt Q9BVC3, whole entry, looked up: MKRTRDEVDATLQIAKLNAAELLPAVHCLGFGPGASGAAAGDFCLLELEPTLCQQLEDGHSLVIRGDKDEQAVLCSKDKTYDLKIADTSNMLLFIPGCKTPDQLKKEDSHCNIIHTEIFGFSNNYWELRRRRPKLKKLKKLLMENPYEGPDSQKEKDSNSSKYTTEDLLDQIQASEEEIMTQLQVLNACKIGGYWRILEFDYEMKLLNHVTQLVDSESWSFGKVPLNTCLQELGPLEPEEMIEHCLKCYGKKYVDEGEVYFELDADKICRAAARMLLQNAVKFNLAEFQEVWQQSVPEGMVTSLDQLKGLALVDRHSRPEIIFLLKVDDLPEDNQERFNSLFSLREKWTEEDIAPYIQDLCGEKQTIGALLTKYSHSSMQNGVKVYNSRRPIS
UniProt Q8WWZ3: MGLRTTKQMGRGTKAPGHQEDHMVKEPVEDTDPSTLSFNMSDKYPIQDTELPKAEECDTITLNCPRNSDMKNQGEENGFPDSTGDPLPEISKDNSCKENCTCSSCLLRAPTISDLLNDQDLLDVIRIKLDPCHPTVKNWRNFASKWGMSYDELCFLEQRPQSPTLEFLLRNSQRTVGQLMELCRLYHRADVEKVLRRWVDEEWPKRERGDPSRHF
UniProt P23919: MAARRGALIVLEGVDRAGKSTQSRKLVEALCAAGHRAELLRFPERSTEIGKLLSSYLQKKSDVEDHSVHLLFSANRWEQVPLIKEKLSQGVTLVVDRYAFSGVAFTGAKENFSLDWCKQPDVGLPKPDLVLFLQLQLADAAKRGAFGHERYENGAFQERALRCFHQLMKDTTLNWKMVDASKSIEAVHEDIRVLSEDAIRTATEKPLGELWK
UniProt Q9BTV6: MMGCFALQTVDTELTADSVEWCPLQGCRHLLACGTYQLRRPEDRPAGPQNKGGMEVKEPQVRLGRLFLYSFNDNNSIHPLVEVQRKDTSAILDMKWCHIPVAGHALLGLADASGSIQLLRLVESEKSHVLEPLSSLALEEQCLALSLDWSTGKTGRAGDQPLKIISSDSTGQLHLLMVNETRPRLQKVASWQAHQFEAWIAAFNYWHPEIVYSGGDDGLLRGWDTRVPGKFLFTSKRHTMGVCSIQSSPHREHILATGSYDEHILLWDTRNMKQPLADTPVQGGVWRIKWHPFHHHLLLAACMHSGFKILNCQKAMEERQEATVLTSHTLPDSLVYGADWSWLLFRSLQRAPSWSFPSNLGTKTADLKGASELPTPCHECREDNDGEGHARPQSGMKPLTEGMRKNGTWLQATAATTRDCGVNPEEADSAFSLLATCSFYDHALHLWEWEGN
UniProt Q13011: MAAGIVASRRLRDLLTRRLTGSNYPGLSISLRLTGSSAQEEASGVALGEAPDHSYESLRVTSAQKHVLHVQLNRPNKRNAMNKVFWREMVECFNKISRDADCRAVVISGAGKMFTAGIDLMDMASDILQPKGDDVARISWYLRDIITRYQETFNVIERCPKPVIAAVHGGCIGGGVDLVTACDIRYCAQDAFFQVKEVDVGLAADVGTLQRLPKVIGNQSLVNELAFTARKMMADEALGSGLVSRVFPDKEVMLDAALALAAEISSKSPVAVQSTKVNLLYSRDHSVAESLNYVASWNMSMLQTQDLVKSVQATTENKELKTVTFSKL
UniProt Q9BVJ7: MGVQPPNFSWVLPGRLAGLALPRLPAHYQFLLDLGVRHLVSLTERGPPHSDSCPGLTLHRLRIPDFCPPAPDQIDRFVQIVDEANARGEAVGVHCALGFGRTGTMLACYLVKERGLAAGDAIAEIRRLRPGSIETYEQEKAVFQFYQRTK
UniProt Q9NP97, whole entry, looked up: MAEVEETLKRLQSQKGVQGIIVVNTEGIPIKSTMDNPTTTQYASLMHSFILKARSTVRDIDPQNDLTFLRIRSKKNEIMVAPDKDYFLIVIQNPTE
UniProt P29692: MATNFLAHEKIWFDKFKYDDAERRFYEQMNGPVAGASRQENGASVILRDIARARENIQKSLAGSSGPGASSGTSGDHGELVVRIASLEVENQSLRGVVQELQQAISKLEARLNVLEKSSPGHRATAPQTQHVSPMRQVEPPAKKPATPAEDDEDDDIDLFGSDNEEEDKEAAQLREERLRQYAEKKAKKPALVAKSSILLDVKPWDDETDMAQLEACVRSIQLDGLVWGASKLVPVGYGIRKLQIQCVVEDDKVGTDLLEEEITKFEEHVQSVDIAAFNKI
UniProt P24534: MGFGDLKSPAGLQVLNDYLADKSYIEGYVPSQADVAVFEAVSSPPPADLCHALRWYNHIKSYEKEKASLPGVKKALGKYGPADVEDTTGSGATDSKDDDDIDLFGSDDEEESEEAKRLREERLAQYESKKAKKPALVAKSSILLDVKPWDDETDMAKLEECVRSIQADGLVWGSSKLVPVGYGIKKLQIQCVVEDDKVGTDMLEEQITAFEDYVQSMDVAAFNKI
UniProt P33316: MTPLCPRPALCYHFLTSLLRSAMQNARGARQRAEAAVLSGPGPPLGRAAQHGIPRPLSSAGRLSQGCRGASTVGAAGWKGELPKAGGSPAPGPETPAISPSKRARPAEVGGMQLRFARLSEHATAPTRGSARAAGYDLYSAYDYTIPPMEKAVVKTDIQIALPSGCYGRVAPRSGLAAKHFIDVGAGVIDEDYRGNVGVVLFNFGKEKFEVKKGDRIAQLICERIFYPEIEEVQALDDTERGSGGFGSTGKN
UniProt Q7L8W6: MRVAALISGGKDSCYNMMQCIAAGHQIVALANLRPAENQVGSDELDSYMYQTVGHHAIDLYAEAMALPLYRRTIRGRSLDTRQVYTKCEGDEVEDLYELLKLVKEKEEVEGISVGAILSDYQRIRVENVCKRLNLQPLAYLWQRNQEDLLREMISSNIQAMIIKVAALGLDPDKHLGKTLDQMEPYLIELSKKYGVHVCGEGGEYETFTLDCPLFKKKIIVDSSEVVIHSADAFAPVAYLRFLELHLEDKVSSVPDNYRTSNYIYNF
UniProt Q9H8V3: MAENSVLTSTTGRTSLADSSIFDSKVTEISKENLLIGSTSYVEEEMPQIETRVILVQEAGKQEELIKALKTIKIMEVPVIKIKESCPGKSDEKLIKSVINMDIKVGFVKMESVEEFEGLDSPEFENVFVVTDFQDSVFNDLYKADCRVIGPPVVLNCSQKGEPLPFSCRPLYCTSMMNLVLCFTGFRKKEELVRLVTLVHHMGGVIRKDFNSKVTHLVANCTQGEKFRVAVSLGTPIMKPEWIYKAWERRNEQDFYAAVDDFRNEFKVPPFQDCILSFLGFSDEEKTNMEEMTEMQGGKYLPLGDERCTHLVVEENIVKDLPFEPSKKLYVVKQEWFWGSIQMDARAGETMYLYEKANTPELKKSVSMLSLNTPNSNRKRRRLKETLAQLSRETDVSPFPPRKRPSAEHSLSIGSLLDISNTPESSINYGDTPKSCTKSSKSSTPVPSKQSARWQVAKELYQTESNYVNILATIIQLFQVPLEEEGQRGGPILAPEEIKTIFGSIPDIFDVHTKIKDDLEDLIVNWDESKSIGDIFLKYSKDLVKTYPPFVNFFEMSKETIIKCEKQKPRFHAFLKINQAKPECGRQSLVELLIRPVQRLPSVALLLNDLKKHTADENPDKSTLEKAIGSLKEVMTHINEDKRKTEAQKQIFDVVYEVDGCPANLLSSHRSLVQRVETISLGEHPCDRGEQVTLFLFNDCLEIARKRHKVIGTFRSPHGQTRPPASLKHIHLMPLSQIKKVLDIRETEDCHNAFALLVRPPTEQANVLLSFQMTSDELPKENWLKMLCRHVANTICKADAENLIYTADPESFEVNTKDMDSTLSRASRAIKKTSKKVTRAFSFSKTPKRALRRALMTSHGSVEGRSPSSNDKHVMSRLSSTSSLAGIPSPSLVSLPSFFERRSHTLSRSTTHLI
UniProt P51452: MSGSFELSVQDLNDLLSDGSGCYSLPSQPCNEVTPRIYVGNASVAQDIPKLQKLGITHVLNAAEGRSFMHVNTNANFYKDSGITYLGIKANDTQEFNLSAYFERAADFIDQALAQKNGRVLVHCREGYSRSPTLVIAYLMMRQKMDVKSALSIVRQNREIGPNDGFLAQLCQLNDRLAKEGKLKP
UniProt Q8N9N8: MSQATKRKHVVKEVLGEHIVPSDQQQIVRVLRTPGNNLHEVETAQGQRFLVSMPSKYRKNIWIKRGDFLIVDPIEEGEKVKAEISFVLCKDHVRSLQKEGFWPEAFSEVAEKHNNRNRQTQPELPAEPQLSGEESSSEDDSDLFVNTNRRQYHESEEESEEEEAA

Compound in one experiment: CC(C)C1=C2N=C(C=C(N2N=C1)NCC3=CC=CC=C3)NCCCCCCN
Description: log2 fold change, soluble protein after heating vs DMSO (PISA); higher = thermal stabilisation; K562 lysate, 10 uM; active = over 0.2 and 3.5 SD of the protein, either way, in both replicates (recomputed). The gist of the method:
(§1)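 To prepare the extract, K562 pellets were dounce-homogenised in PBS pH 7.4 with 1 mM MgCl2, giving crude material at 1 mg/mL protein. This was treated with 10 μM compound for 30 min, then heated in aliquots for 3 min over 48°C-58°C before pooling and addition of NP-40 to 0.5% at 4°C. Centrifugation at 21,000xg for 90 min left soluble protein in the supernatant, which TMTpro 16plex LC-MS/MS quantified with equalised channel sums. Results are log-two fold changes in thermal stability compared with solvent controls, from duplicates.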
With EIF1B (UniProt O60739), the log2 fold change is inactive: -0.08.
The same measure, in the same setting: for EDF1 (UniProt O60869) the value was inactive: 0.051; for DRAP1 isoform 2 (UniProt Q14919), inactive: 0.
Turning to E2F4 (UniProt Q16254), the log2 fold change is inactive: 0.018.
Regarding EFHD2 (UniProt Q96C19), the log2 fold change was inactive: -0.015.
Same read-out and setting: as for DPP8 (UniProt Q6V1X1), the figure is inactive: -0.045.
For DSN1 (UniProt Q9H410), the log2 fold change was inactive: -0.015.
For the target DUS4L (UniProt O95620), the log2 fold change is inactive: 0.03.
EEF1E1 (UniProt O43324): the log2 fold change is inactive: -0.01.
For the target DYM (UniProt Q7RTS9), the log2 fold change is inactive: -0.069.
On the same count and under the same terms, for EFTUD2 (UniProt Q15029) the value was inactive: -0.008.
Regarding EIF2A (UniProt Q9BY44), the log2 fold change was inactive: 0.008.
In the case of EEF1AKMT2, A0A494BZY7, the log2 fold change is inactive: -0.001.
In the case of DPY19L1, A0A1B0GW05, the log2 fold change is inactive: -0.001.
EDEM1 (UniProt Q92611): the log2 fold change was inactive: -0.074.
The same measure, in the same setting: as for DPYSL2 (UniProt Q16555), the figure is inactive: 0.036; as for DUS3L (UniProt Q96G46), inactive: -0.007; as for DSCC1 (UniProt Q9BVC3), inactive: 0.012.
Take EHBP1 isoform 2 (UniProt Q8NDI1): the log2 fold change was inactive: -0.007.
Same read-out and setting: as for EDARADD (UniProt Q8WWZ3), the figure is inactive: -0.008.
The same measure, in the same setting: for EFHD1 (UniProt Q9BUP0) the value was inactive: -0.04; for DTYMK (UniProt P23919), inactive: 0.023; for DYNLL2 (UniProt Q96FJ2), inactive: 0.117.
In the case of DPH7 (UniProt Q9BTV6), the log2 fold change is inactive: -0.043.
For the target ECH1 (UniProt Q13011), the log2 fold change was inactive: -0.033.
Same read-out and setting: for DUSP23 (UniProt Q9BVJ7) the value was inactive: 0.006.
Still for that read-out and setting: as for DYNLRB1 (UniProt Q9NP97), the figure is inactive: -0.002; as for DPP9 isoform 2 (UniProt Q86TI2), inactive: 0.002; as for DPP7 (UniProt Q9UHL4), inactive: -0.038.
On the same count and under the same terms, for EEF1D isoform 2 (UniProt P29692) the value was inactive: -0.004; for EEF1B2 (UniProt P24534), inactive: -0.007; for DUT (UniProt P33316), inactive: -0.027.
With EED, A0A5F9ZI63, the log2 fold change was inactive: -0.004.
With DPH6 (UniProt Q7L8W6), the log2 fold change was inactive: -0.032.
Same read-out and setting: as for ECT2 (UniProt Q9H8V3), the figure is inactive: -0.074.
The same measure, in the same setting: as for DUSP3 (UniProt P51452), the figure is inactive: -0.002; as for DYNC1H1 (UniProt Q14204), inactive: 0.002; as for EIF1AD (UniProt Q8N9N8), inactive: 0.017.
The same measure, in the same setting: for ECI2 (UniProt O75521) the value was inactive: -0.015; for EBNA1BP2 (UniProt Q99848), inactive: -0.02.

Compound in the next experiment: CC1=C(C(CC(=O)N1)C2=CC=C(C=C2)C(F)(F)F)C(=O)NC3=C(C=C4C(=C3)C=NN4)F
The description is as above. The gist of the method:
as §1
With EIF1B (UniProt O60739), the log2 fold change was inactive: -0.211.
Take EDF1 (UniProt O60869): the log2 fold change was inactive: -0.021.
Regarding DRAP1 isoform 2 (UniProt Q14919), the log2 fold change was inactive: 0.013.
Same read-out and setting: as for E2F4 (UniProt Q16254), the figure is inactive: 0.012; as for EFHD2 (UniProt Q96C19), inactive: -0.03; as for DPP8 (UniProt Q6V1X1), inactive: 0.006.
The same measure, in the same setting: as for DSN1 (UniProt Q9H410), the figure is inactive: 0.024.
DUS4L (UniProt O95620): the log2 fold change is inactive: -0.039.
For EEF1E1 (UniProt O43324), the log2 fold change is inactive: -0.005.
In the case of DYM (UniProt Q7RTS9), the log2 fold change was inactive: 0.049.
As for EFTUD2 (UniProt Q15029), the log2 fold change was inactive: -0.011.
Same read-out and setting: for EIF2A (UniProt Q9BY44) the value was inactive: -0.016.
For the target EEF1AKMT2, A0A494BZY7, the log2 fold change is inactive: 0.108.
Still for that read-out and setting: for DPY19L1, A0A1B0GW05 the value was inactive: 0.044.
Regarding EDEM1 (UniProt Q92611), the log2 fold change was inactive: -0.042.
Still for that read-out and setting: for DPYSL2 (UniProt Q16555) the value was inactive: 0.013; for DUS3L (UniProt Q96G46), inactive: 0.004.
The same measure, in the same setting: as for DSCC1 (UniProt Q9BVC3), the figure is inactive: 0.019; as for EHBP1 isoform 2 (UniProt Q8NDI1), inactive: -0.063.
For the target EDARADD (UniProt Q8WWZ3), the log2 fold change was inactive: -0.007.
As for EFHD1 (UniProt Q9BUP0), the log2 fold change is inactive: -0.065.
Consider DTYMK (UniProt P23919), for which the log2 fold change is inactive: -0.035.
Same read-out and setting: for DYNLL2 (UniProt Q96FJ2) the value was inactive: -0.081; for DPH7 (UniProt Q9BTV6), inactive: -0.009; for ECH1 (UniProt Q13011), inactive: 0.04.
With DUSP23 (UniProt Q9BVJ7), the log2 fold change was inactive: -0.004.
Still for that read-out and setting: as for DYNLRB1 (UniProt Q9NP97), the figure is inactive: -0.041; as for DPP9 isoform 2 (UniProt Q86TI2), inactive: 0.005.
The same measure, in the same setting: for DPP7 (UniProt Q9UHL4) the value was inactive: 0.011; for EEF1D isoform 2 (UniProt P29692), inactive: -0.047.
On the same count and under the same terms, for EEF1B2 (UniProt P24534) the value was inactive: -0.027.
With DUT (UniProt P33316), the log2 fold change is inactive: -0.024.
Still for that read-out and setting: for EED, A0A5F9ZI63 the value was inactive: 0.036; for DPH6 (UniProt Q7L8W6), inactive: 0.027.
With ECT2 (UniProt Q9H8V3), the log2 fold change is inactive: -0.046.
The same measure, in the same setting: as for DUSP3 (UniProt P51452), the figure is inactive: -0.024; as for DYNC1H1 (UniProt Q14204), inactive: 0.001; as for EIF1AD (UniProt Q8N9N8), inactive: -0.011.
Still for that read-out and setting: as for ECI2 (UniProt O75521), the figure is inactive: -0.013; as for EBNA1BP2 (UniProt Q99848), inactive: -0.007.

Source of the values: the supplement of paper PMC10849652.
